Assay results from PMC4772114, “Structural basis for the regulation of enzymatic activity of Regnase-1 by domain-domain interactions” (Scientific Reports, 2016).
No constants are given. Whether binding was seen depends on the method and setting. Some entries that bind do so weakly or less than the wild type. Each block holds one binder with its values, some of them ahead of it.

Assays:
[1] = target: Regnase-1 PIN domain P212A (Mus musculus) (UniProt Q5D1E7); assay: SEC; gel filtration of the PIN domain and its mutants; elution volume compared with standard marker proteins; concentration dependent, 20-200 uM range; both purified
[2] = target: Regnase-1 PIN domain D278R (Mus musculus) (UniProt Q5D1E7); assay: as above
[3] = target: Regnase-1 PIN domain R214A (Mus musculus) (UniProt Q5D1E7); assay: as above
[4] = target: T1, Regnase-1 PIN domain, catalytically inactive monomeric mutant (DDNN and D278R) (Mus musculus) (UniProt Q5D1E7); assay: NMR titration; 1H-15N HSQC of 15N-labeled PIN (DDNN, D278R) at 100 uM with 3 or 6 molar equivalents of unlabeled NTD; 298 K; both purified
T1 sequence: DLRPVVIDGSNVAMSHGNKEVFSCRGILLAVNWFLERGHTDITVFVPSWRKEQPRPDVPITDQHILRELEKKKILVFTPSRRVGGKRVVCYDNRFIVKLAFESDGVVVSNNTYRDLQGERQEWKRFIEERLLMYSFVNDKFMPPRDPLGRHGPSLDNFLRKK

B2: Regnase-1 PIN domain D278R (domain or fragment, UniProt Q5D1E7 134-295)
chain: DLRPVVIDGSNVAMSHGNKEVFSCRGILLAVNWFLERGHTDITVFVPSWRKEQPRPDVPITDQHILRELEKKKILVFTPSRRVGGKRVVCYDDRFIVKLAFESDGVVVSNDTYRDLQGERQEWKRFIEERLLMYSFVNDKFMPPRDPLGRHGPSLDNFLRKK
binding [2]: no binding

B4: Regnase-1 N-terminal domain (NTD) (domain or fragment, Mus musculus)
chain: TSELQMKVDFFRKLGYSSSEIHSVLQKLGVQADTNTVLGELVKHG
notes: Regnase-1 (Zc3h12a), Mus musculus, N-terminal domain; residues 90-133 are called the connection between the NTD and PIN; Uniformly 15N-labelled or unlabelled in the NMR experiments; not shown: GST, N-terminal, cleaved
binding [4]: binds

Continued, values first:

binding [1]: no binding
B1: Regnase-1 PIN domain P212A (domain or fragment, UniProt Q5D1E7 134-295)
chain: DLRPVVIDGSNVAMSHGNKEVFSCRGILLAVNWFLERGHTDITVFVPSWRKEQPRPDVPITDQHILRELEKKKILVFTASRRVGGKRVVCYDDRFIVKLAFESDGVVVSNDTYRDLQGERQEWKRFIEERLLMYSFVNDKFMPPDDPLGRHGPSLDNFLRKK

binding [3]: no binding
B3: Regnase-1 PIN domain R214A (domain or fragment, UniProt Q5D1E7 134-295)
chain: DLRPVVIDGSNVAMSHGNKEVFSCRGILLAVNWFLERGHTDITVFVPSWRKEQPRPDVPITDQHILRELEKKKILVFTPSARVGGKRVVCYDDRFIVKLAFESDGVVVSNDTYRDLQGERQEWKRFIEERLLMYSFVNDKFMPPDDPLGRHGPSLDNFLRKK
